The other results are listed elsewhere or left out.
Compound: CC1Cc2ccccc2N1C(=O)C1CCCN(C1)C(=O)CCl (mixture of isomers) [TRIM25 ligand 11 (diastereomer mixture)]
Experiment: probe-labelled cysteine peptide fold change vs DMSO (competition) (log2 fold change); higher = less target engagement (more negative = stronger competition)
Settings: THP-1, incubation time: 4 h
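Note: competitive chemoproteomic profiling in live THP-1 cells with an iodoacetamide desthiobiotin (IA-DTB) probe, comparing probe-labelled peptide intensities in compound-treated cells against DMSO-treated controls.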

Protein sequences, listed by entry. Tags and fused reporters are not part of them. Lines headed by an entry give the natural chain unless they say otherwise; changes in a name come on top.
UniProt P78527, whole entry, looked up: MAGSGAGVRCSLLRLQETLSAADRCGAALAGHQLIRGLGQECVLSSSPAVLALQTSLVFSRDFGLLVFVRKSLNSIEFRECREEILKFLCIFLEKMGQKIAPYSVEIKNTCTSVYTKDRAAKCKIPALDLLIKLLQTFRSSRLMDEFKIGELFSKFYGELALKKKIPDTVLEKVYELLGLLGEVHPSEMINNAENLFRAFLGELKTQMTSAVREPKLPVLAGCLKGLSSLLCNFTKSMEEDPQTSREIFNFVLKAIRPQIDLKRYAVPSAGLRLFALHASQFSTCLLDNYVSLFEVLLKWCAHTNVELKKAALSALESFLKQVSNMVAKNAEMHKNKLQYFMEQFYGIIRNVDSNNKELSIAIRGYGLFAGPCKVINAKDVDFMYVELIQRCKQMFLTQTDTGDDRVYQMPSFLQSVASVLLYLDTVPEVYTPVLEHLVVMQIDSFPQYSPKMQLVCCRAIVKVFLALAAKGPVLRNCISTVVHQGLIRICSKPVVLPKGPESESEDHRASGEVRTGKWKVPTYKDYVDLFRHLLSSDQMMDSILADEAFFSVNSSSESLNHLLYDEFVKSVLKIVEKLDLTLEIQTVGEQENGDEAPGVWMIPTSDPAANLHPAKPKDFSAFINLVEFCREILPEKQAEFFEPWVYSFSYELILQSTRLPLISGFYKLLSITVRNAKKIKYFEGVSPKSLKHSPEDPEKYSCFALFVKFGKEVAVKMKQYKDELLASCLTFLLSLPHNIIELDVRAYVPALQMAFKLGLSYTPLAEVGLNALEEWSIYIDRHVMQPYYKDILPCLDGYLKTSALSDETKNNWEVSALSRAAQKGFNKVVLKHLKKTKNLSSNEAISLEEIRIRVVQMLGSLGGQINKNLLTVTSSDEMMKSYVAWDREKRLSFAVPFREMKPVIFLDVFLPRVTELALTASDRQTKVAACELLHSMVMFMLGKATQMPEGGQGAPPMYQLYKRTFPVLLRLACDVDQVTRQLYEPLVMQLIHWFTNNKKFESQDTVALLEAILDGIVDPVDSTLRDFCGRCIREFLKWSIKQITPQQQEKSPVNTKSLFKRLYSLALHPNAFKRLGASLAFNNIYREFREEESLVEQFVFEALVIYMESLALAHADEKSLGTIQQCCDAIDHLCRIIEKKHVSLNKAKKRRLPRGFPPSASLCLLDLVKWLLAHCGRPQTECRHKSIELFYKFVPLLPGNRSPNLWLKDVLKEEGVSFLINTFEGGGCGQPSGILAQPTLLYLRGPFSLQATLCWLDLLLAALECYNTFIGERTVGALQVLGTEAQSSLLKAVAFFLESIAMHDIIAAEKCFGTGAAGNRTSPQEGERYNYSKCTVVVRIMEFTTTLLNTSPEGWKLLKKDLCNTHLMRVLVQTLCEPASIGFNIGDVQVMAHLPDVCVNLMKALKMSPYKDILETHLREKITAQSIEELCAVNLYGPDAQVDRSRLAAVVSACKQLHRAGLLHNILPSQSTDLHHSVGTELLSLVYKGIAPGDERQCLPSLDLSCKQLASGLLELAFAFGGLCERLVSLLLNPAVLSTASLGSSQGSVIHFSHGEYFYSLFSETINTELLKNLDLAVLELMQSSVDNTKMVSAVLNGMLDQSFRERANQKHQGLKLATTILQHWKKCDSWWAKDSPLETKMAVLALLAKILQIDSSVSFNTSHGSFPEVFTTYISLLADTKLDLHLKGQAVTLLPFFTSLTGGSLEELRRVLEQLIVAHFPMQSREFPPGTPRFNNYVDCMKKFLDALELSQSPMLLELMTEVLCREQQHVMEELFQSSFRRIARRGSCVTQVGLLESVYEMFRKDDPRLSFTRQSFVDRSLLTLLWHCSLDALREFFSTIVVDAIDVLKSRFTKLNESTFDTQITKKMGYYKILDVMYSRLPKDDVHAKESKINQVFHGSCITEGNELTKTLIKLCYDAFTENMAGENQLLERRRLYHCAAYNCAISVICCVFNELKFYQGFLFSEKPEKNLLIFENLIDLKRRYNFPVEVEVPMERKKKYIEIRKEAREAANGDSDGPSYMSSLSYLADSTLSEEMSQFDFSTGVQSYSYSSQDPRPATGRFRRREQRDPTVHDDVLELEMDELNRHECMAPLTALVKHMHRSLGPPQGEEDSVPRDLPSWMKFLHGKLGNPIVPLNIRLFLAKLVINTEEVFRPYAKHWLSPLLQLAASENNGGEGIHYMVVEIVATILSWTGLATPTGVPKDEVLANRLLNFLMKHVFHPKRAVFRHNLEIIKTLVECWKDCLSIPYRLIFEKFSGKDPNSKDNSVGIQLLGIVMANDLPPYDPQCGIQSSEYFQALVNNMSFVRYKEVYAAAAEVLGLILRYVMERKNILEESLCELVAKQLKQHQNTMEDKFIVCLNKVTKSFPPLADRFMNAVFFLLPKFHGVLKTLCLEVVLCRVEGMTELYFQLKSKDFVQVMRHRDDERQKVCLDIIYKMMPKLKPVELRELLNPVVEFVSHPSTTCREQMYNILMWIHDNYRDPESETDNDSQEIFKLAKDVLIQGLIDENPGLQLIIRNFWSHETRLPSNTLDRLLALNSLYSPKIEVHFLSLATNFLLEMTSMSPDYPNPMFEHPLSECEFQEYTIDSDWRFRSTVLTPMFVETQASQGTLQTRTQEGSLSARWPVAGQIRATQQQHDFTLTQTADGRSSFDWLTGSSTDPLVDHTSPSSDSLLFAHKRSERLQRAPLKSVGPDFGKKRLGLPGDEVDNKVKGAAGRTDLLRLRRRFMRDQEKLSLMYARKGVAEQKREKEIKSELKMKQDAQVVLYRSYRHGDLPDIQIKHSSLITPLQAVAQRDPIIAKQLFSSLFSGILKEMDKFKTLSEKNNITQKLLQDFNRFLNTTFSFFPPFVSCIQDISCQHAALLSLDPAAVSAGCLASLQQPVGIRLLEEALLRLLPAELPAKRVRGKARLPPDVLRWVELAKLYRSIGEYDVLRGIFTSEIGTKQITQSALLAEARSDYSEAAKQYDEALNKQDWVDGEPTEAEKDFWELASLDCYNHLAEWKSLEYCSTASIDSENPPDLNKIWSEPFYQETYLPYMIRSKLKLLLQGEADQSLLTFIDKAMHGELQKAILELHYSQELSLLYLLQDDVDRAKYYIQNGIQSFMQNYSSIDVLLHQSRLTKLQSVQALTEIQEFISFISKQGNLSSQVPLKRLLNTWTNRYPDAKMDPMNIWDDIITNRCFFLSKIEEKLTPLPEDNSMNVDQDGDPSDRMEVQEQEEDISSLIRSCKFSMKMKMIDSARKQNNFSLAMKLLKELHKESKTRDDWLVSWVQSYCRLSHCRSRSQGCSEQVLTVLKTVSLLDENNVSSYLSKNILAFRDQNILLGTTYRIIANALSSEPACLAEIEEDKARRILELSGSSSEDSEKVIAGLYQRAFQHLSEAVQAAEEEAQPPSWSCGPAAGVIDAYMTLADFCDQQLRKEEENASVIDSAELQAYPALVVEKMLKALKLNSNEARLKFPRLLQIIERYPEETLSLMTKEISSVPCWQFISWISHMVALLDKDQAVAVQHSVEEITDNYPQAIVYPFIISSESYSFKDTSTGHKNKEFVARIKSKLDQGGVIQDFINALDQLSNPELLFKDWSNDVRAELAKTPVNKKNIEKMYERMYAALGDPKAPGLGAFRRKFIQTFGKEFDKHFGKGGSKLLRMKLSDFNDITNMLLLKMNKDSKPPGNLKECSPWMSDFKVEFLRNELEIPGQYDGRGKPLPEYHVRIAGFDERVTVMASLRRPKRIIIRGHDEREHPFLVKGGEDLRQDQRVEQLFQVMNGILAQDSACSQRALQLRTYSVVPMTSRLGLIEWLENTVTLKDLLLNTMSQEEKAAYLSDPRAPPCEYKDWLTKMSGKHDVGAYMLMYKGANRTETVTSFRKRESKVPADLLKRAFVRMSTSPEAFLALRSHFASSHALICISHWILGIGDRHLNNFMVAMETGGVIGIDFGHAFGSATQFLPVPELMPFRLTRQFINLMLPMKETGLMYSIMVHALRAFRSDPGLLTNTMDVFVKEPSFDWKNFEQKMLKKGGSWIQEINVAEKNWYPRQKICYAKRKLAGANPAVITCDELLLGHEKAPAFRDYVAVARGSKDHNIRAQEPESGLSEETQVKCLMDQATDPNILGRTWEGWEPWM
UniProt P11908: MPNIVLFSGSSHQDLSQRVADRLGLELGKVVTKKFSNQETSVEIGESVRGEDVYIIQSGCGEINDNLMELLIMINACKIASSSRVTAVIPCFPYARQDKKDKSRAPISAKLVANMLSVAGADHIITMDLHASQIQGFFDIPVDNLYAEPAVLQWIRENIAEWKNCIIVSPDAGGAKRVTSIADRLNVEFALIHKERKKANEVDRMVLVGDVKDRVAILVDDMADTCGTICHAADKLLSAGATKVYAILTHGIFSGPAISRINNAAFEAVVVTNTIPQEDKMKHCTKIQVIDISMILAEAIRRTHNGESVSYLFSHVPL
UniProt O14744, whole entry, looked up: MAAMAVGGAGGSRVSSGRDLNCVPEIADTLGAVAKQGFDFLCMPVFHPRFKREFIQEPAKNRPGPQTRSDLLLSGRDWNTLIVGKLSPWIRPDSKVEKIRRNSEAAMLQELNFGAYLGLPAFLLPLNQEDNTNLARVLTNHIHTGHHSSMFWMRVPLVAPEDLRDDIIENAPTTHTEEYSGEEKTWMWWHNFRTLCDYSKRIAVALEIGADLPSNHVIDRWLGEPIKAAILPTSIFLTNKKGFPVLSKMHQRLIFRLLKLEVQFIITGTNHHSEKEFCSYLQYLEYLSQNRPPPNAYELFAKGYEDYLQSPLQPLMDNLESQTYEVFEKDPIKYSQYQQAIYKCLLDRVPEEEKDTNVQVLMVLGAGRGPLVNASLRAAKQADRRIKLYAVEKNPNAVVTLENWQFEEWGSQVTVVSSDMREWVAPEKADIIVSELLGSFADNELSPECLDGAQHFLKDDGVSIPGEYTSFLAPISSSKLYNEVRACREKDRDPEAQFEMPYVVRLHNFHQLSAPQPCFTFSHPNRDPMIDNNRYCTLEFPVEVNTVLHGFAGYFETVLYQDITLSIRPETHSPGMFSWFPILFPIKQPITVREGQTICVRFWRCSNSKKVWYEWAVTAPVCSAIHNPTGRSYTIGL
UniProt Q04759: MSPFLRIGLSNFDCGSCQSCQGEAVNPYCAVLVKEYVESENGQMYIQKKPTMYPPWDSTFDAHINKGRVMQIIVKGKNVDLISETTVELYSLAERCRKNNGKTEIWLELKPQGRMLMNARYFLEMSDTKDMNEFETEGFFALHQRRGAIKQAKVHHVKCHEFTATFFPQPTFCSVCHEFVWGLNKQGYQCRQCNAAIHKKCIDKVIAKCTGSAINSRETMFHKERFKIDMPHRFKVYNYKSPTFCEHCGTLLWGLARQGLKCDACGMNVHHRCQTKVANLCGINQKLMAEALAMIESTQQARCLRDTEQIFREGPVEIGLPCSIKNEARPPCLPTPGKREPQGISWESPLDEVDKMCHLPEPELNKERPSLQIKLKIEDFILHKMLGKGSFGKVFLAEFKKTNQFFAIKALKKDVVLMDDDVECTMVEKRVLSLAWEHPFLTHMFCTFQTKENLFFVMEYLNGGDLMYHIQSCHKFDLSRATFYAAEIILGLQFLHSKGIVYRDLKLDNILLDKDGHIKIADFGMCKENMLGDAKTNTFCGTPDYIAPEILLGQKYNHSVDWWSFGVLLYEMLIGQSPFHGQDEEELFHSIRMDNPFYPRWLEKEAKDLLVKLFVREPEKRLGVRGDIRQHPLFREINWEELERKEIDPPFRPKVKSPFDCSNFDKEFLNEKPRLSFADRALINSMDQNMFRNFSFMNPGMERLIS
UniProt Q9NVM4: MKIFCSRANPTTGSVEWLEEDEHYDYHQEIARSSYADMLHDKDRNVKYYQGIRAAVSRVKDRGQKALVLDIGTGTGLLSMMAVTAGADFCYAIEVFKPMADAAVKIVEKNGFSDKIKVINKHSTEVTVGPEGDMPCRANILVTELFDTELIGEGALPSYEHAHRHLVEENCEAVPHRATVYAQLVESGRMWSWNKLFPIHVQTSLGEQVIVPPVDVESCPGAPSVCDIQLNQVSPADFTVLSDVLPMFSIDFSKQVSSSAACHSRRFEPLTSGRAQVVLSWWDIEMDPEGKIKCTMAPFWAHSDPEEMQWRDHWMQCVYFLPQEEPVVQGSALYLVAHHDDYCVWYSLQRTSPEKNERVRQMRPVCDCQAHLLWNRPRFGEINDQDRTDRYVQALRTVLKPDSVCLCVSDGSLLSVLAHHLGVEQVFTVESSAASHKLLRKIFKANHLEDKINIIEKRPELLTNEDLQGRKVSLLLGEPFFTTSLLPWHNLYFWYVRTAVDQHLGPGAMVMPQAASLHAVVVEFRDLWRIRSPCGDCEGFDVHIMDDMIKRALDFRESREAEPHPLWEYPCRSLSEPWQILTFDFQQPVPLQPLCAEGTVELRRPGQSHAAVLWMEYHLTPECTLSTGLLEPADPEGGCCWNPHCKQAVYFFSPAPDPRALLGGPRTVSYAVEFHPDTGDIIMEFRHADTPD

Target	probe-labelled cysteine peptide fold change (10 µM)	probe-labelled cysteine peptide fold change (50 µM)
PRPF8_Q6P2Q9_2116_KFICISDLR (UniProt Q6P2Q9)	-0.00497	0.0232
PRPF6_O94906_430_AVECCPTSVELWLALAR (UniProt O94906)	-0.0518	0.198
PREX1_Q8TCU6_963_QAPLEPHPLCGLDFCPTNCHINLMEVSYPK (UniProt Q8TCU6)	0.168	-0.031
PRKDC_P78527_3187_CFFLSK (UniProt P78527)	-0.115	-0.109
PRR14L_Q5THK1_650_VESECVLNQQVSLNSQEHANLPTDSLLHLNK (UniProt Q5THK1)	-0.176	-0.356
PRMT1_Q99873_119_KVIGIECSSISDYAVK (UniProt Q99873)	-0.0063	0.0865
PRKAA1_Q13131_238_ICDGIFYTPQYLNPSVISLLK (UniProt Q13131)	0.147	-0.173
PRMT1_Q99873_250_QLVTNACLIK (UniProt Q99873)	0.0519	0.0423
PRKDC_P78527_1791_RGSCVTQVGLLESVYEMFRK (UniProt P78527)	-0.289	-0.165
PRPS2_P11908_230_DRVAILVDDMADTCGTICHAADK (UniProt P11908)	-0.0227	0.215
PRMT5_O14744_22_DLNCVPEIADTLGAVAK (UniProt O14744)	0.034	-0.0764
PRPS1_P60891_165_NCTIVSPDAGGAK (UniProt P60891)	-0.0609	0.152
PRKCD_Q05655_344_CNINNFIFHK (UniProt Q05655)	-0.153	-0.132
PRKRA_O75569_106_ANASICFAVPDPLMPDPSK (UniProt O75569)	-0.0649	-0.118
PRMT9_Q6P2P2_175_AVCLGSK (UniProt Q6P2P2)	0.061	0.0264
PRKDC_P78527_90_FLCIFLEK (UniProt P78527)	-0.0507	-0.038
PRMT6_Q96LA8_100_TVLDVGAGTGILSIFCAQAGAR (UniProt Q96LA8)	-0.0299	0.19
PRKCB_P05771_386_DVVIQDDDVECTMVEK (UniProt P05771)	0.158	0.0628
PREX1_Q8TCU6_836_LSLCEDSPMVTLTVDNVHLEHGVVYEYVSTAGVR (UniProt Q8TCU6)	0.0685	-0.0133
PRKDC_P78527_3781_VEQLFQVMNGILAQDSACSQR (UniProt P78527)	0.102	0.0405
PRMT3_O60678_53_QQTPCLFCNR (UniProt O60678)	0.032	-0.0779

Target	probe-labelled cysteine peptide fold change (10 µM)	probe-labelled cysteine peptide fold change (50 µM)
PRKD2_Q9BZL6_188_CAFSIPNNCSGAR (UniProt Q9BZL6)	-0.0184	0.142
PRMT5_O14744_622_KVWYEWAVTAPVCSAIHNPTGR (UniProt O14744)	-0.00844	0.136
PRPF3_O43395_630_CVLVWEGTAK (UniProt O43395)	0.0171	-0.0612
PRMT1_Q99873_103_VVLDVGSGTGILCMFAAK (UniProt Q99873)	0.0238	-0.0463
PRPF19_Q9UMS4_16_SLICSISNEVPEHPCVSPVSNHVYER (UniProt Q9UMS4)	-0.133	-0.447
PRKDC_P78527_3281_TRDDWLVSWVQSYCR (UniProt P78527)	-0.0286	-0.0775
PRRC2C_Q9Y520_223_IACGPPQAK (UniProt Q9Y520)	-0.127	-0.342
PRPF6_O94906_913_HGELWCAVSK (UniProt O94906)	0.125	0.0547
PRKCI_P41743_108+117_DSELLIHVFPCVPERPGMPCPGEDK (UniProt P41743)	-0.204	-0.207
PRKDC_P78527_457_MQLVCCR (UniProt P78527)	-0.115	0.268
PRRC2C_Q9Y520_620_QESENSCNKEEEPVFTR (UniProt Q9Y520)	0.0183	-0.411
PRPF6_O94906_513_EQWIQDAEECDR (UniProt O94906)	0.35	0.00987
PRKDC_P78527_974_LACDVDQVTR (UniProt P78527)	0.122	0.195
PRPS2_P11908_226_VAILVDDMADTCGTICHAADK (UniProt P11908)	-0.0518	0.0205
PREX1_Q8TCU6_558_LVDWLLAQGDCQTR (UniProt Q8TCU6)	0.214	0.0444
PRKD2_Q9BZL6_615_HPGIVNLECMFETPEK (UniProt Q9BZL6)	0.142	0.17
PRRC2A_P48634_437_GGPPCKPPAPEDEDEAWR (UniProt P48634)	-0.12	-0.301
PRKCB_P05771_78_CHEFVTFSCPGADK (UniProt P05771)	0.126	0.232
PRKCA_P17252_406_VLALLDKPPFLTQLHSCFQTVDR (UniProt P17252)	0.26	-0.111
PRKDC_P78527_1791_GSCVTQVGLLESVYEMFR (UniProt P78527)	-0.0458	-0.0224
PRKDC_P78527_2342_KNILEESLCELVAK (UniProt P78527)	-0.115	0.0649

Target	probe-labelled cysteine peptide fold change (10 µM)	probe-labelled cysteine peptide fold change (50 µM)
PRKDC_P78527_2363_FIVCLNK (UniProt P78527)	0.162	0.0982
PRKAA1_Q13131_141_LFQQILSGVDYCHR (UniProt Q13131)	0.0881	0.0662
PRPF4_O43172_237_SLNNFCSQIGDDRPISYCHFSPNSK (UniProt O43172)	0.0327	-0.552
PRPF8_Q6P2Q9_547_FGNAFHLCR (UniProt Q6P2Q9)	0.191	0.0782
PRKCQ_Q04759_281_VANLCGINQK (UniProt Q04759)	-0.0428	-0.126
PRICKLE3_O43900_246_HHAECLRPR (UniProt O43900)	0.0088	-0.0424
PRKDC_P78527_1312_CFGTGAAGNR (UniProt P78527)	0.0947	0.0509
PRRC2C_Q9Y520_2340_STTTSDPPNICK (UniProt Q9Y520)	-0.0359	-0.198
PRKDC_P78527_795_DILPCLDGYLK (UniProt P78527)	0.126	0.125
PRPF6_O94906_901_CESAEPR (UniProt O94906)	-0.174	-0.148
PRR14L_Q5THK1_228_DLSAGCGEFQEVDK (UniProt Q5THK1)	0.116	-0.072
PRPF6_O94906_837_KCEHDPHVLLAVAK (UniProt O94906)	-0.0261	0.0306
PRKAR2B_P31323_116_RASVCAEAYNPDEEEDDAESR (UniProt P31323)	0.0279	-0.142
PRPF19_Q9UMS4_351+355_VTDETSGCSLTCAQFHPDGLIFGTGTMDSQIK (UniProt Q9UMS4)	0.0872	0.031
PRMT1_Q99873_103_DKVVLDVGSGTGILCMFAAK (UniProt Q99873)	-0.241	0.142
PRMT7_Q9NVM4_136_HSTEVTVGPEGDMPCR (UniProt Q9NVM4)	-0.0661	-0.198
PRPF40A_O75400_580_EDALICFEEHIR (UniProt O75400)	0.133	0.0442
PRKCD_Q05655_175_NHEFIATFFGQPTFCSVCK (UniProt Q05655)	-0.0362	0.249
PRKDC_P78527_1176_WLLAHCGR (UniProt P78527)	-0.0497	0.244
PRKCD_Q05655_393_DVVLIDDDVECTMVEK (UniProt Q05655)	0.0846	0.00931
PRPS2_P11908_226+230_DRVAILVDDMADTCGTICHAADK (UniProt P11908)	-0.14	0.32

Target	probe-labelled cysteine peptide fold change (10 µM)	probe-labelled cysteine peptide fold change (50 µM)
PREX1_Q8TCU6_867_CHVLEK (UniProt Q8TCU6)	0.00857	0.183
PRMT1_Q99873_360_GQLCELSCSTDYR (UniProt Q99873)	0.0677	0.0837
PRKDC_P78527_630_DFSAFINLVEFCR (UniProt P78527)	0.0072	0.0448
PRKDC_P78527_1176_WLLAHCGRPQTECR (UniProt P78527)	-0.0994	0.0666
PRKDC_P78527_1742_FNNYVDCMKK (UniProt P78527)	-0.327	-0.152
PRKAR1A_P10644_18_SLRECELYVQK (UniProt P10644)	-0.229	-0.353
PRKDC_P78527_1127+1128_SLGTIQQCCDAIDHLCR (UniProt P78527)	0.269	-0.018
PRKDC_P78527_3281_DDWLVSWVQSYCR (UniProt P78527)	-0.0472	0.0243
PRKDC_P78527_3347_IIANALSSEPACLAEIEEDK (UniProt P78527)	0.033	0.0495
PRKDC_P78527_373_GYGLFAGPCK (UniProt P78527)	0.0188	0.073
PRKD2_Q9BZL6_180+188_CAFSIPNNCSGAR (UniProt Q9BZL6)	-0.156	-0.187
PRKDC_P78527_4061_KLAGANPAVITCDELLLGHEK (UniProt P78527)	-0.131	-0.00312
PRKDC_P78527_3683_ECSPWMSDFKVEFLR (UniProt P78527)	-0.518	-0.397
PRKCB_P05771_132_CDTCMMNVHKR (UniProt P05771)	-0.182	-0.3
PRKDC_P78527_1335_CTVVVR (UniProt P78527)	0.148	0.208
PRMT7_Q9NVM4_368_QMRPVCDCQAHLLWNRPR (UniProt Q9NVM4)	-0.163	-0.0321
PRKCQ_Q04759_193_QCNAAIHKK (UniProt Q04759)	-0.181	-0.216
PRPF6_O94906_739_KCPHSTPLWLLLSR (UniProt O94906)	-0.015	-0.433
PRKDC_P78527_123_CKIPALDLLIK (UniProt P78527)	-0.544	-0.254
